# Data taken from patent publication US20060063187A1, “Modulation of XBP-1 activity for treatment of metabolic disorders” (priority 2004, published 2006).
# Entries after “also recorded” stand apart in the source; their conditions may differ. For at least one compound, name, drawing or mass did not settle the structure.
# Test system: Fao liver cells
# Test: ER stress and insulin receptor signaling in Fao liver cells (immunoprecipitation / immunoblotting)
# Format: cell-based, rat
# Conditions: 300 nM thapsigargin for 4 hours; JNK inhibitor 25 μM added 1 hour before
# Protocol: FIG. 2 depicts that the induction of ER stress impairs insulin action through JNK mediated phosphorylation of IRS-1. (A) ER stress was induced in Fao liver cells by a 3-hour treatment with 5 μg/ml tunicamycin (Tun). Cells were subsequently stimulated with insulin (Ins). IRS-1 tyrosine and serine (Ser307) phosphorylation, Akt phosphorylation (Ser473), insulin receptor (IR) tyrosine phosphorylation, and their total protein levels were examined using either immunoprecipitation (IP) followed by immunoblotting (IB) or direct immunoblotting. (B) Quantitation of IRS-1 (tyrosine and Ser307), Akt (Ser473), and IR (tyrosine) phosphorylation under the experimental conditions described in (A) with normalization to protein levels for each molecule. (C) Inhibition of ER stress-induced (300 nM thapsigargin for 4 hours) Ser307 phosphorylation of IRS-1 by JNK-1 inhibitor, SP600125 (JNKi, 25 μM). (D) Quantitation of IRS-1 Ser307 phosphorylation under conditions described in (C). (E) Reversal of ER stress-induced inhibition of insulin-stimulated tyrosine phosphorylation (pY) of IRS-1 by a JNK inhibitor. (F) Quantitation of insulin-induced IRS-1 tyrosine phosphorylation levels described in (E). (G) JNK activity, Ser307 phosphorylation of IRS-1, and total IRS-1 levels at indicated times following tunicamycin treatment (Tun, 10 μg/ml for I hour) in IRE-1α^+/+ and IRE-1α^−/− fibroblasts. […]
structure (smiles),measurement,value
Oc1c2ccccc2c2c3c(cccc13)N=N2 [SP600125],ER stress-induced serine (Ser307) phosphorylation of IRS-1,Inhibition; also recorded: reversed
